{"source": "patent US20240342190A1", "about": "“METHODS FOR REDUCING ISCHEMIA-REPERFUSION INJURIES” (BioMimetix JV, LLC, priority 2023, published 2024)", "tested_on": "young male Wistar rats subjected to 90 min of MCAO (ischemic stroke)", "experiment": "Experiment 3: duration of BMX-001 treatment and long-term stroke outcome in young male rats", "type": "in vivo, rat", "description": "The rats were fasted overnight for glucose control. On the surgery day, they were anesthetized with 5% isoflurane in 30% oxygen balanced with nitrogen. The trachea was orally intubated, and both lungs were mechanically ventilated to maintain normocapnia. Isoflurane was reduced to 1.5% during the surgical procedure. A 22-gauge needle thermistor was percutaneously inserted beneath the temporalis muscle adjacent to the skull. The pericranial temperature was maintained at 37.0° C.±0.2° C. by a surface heat lamp. The tail artery was cannulated with PE 50 tubing (BD Intramedic™ Polyethylene Tubing, Sparks, MD, USA), and arterial blood pressure was continuously monitored. 50 IU of heparin was given via arterial line to prevent intra-arterial thrombosis. Arterial blood samples were collected pre, during, and after ischemia for blood gas, glucose, and hematocrit measurements.\nIschemic stroke was induced by transiently occluding the middle cerebral artery (MCAO) as previously reported.^23,24 Briefly, a midline cervical incision was made and the right common carotid artery […] was identified. The external and internal carotid arteries were dissected. […] The internal carotid artery (ICA) was dissected distally until the origin of the pterygopalatine artery was visualized. After surgical preparation, a 10 min interval was allowed for physiologic stabilization. […] The common carotid artery was re-opened, and a timer was started as the onset of cerebral ischemia.\nAfter 90 min of MCAO, the filament was removed and a PE-10 tube (BD Intramedic™ Polyethylene Tubing, Sparks, MD, USA) was inserted into the ICA beyond the origin of the pterygopalatine artery. The vehicle or BMX-001 (30-50 μg/kg) solution (1 μl/g for both solutions, 250 μl for the 250 g rat) was slowly infused for 5 minutes via syringe pump. At the completion of intra-carotid infusion, the PE tube was removed and the ECA stump was permanently ligated. The tail artery catheter was removed and both the neck incision and tail incision were infiltrated with bupivacaine and closed with suture. Isoflurane was discontinued. Rats were disconnected from the ventilator when they attained spontaneous respiration and kept in a recovery cage. The tracheas were extubated after recovery of the righting reflex. They were in an O2 enriched environment (30% O2) for 1 h and then returned to the home cage.\nPost-stroke neurologic deficits were assessed at day 7 and 28 using a standardized neurological scoring system.^27,28 General status, simple motor deficit, complex motor deficit, and sensory deficit were evaluated, including the ability of walking on a beam and climbing on the vertical screen. The total score each animal received was the sum of all four individual scores (0-48, 0=normal and 48=the worst score).\nUpon the completion of functional tests, the animals were weighed, anesthetized with isoflurane, and decapitated. The brains were harvested, frozen at −20° C. in 2-methylbutane on dry ice, and stored in a −80° C. freezer. Serial quadruplicate 20-μm-thick coronal sections were cut using a Leica cryostat and mounted on the slides at 720-μm interval over the rostral-caudal extent of the brain. The sections were dried on a slide heater at 36° C., and stained with hematoxylin and eosin. A section from each […] interval was digitized with a video camera controlled by an image analyzer (MCID, the MicroComputer Imaging Device, Imaging Research Inc, St. Catharines, Ontario, Canada). […] With the observer blinded to the experimental condition, the following regions of interest (ROI) were outlined individually using an operator-controlled cursor, including non-infarcted ipsilateral cerebral cortex, non-infarcted ipsilateral subcortex, contralateral cerebral cortex, and contralateral subcortex. The area in each ROI (mm^2) was determined by automated counting of calibrated pixels and the volume (mm^3) was computed by the known interval between sections over the rostral-caudal extent of brain. […]", "key": {"[1]": {"settings": "10 minutes before stroke, group BMX-001 for 7 days"}, "[2]": {"settings": "10 minutes before stroke, group BMX-001 for 28 days"}, "[3]": {"settings": "45 minutes after stroke onset, group BMX-001 for 7 days"}, "[4]": {"settings": "45 minutes after stroke onset, group BMX-001 for 28 days"}}, "data": [{"compound": "CCCCOCC[n+]1ccccc1C1=C2C=CC3=[N+]2[Mn]24[n]5c1ccc5C(c1cccc[n+]1CCOCCCC)=C1C=CC(=[N+]12)C(c1cccc[n+]1CCOCCCC)=c1ccc([n]14)=C3c1cccc[n+]1CCOCCCC", "note": "[BMX-001, MnTnBuOE-2-PyP^5+]", "values": [{"measurement": "Glucose", "setting": "[1]", "result": "104 ± 19"}, {"measurement": "Hct", "setting": "[1]", "result": "42.6 ± 1.4"}, {"measurement": "PCO2", "setting": "[1]", "result": "36 ± 3"}, {"measurement": "PO2", "setting": "[1]", "result": "168 ± 18"}, {"measurement": "pH", "setting": "[1]", "result": "7.481 ± 0.033"}, {"measurement": "MAP", "setting": "10 minutes before stroke, group BMX-001 for 7 days (n = 19), mean ± SD", "result": "75 ± 9", "unit": "mmHg"}, {"measurement": "Glucose", "setting": "[2]", "result": "110 ± 17"}, {"measurement": "Hct", "setting": "[2]", "result": "42.2 ± 1.3"}, {"measurement": "PCO2", "setting": "[2]", "result": "35 ± 4"}, {"measurement": "PO2", "setting": "[2]", "result": "172 ± 13"}, {"measurement": "pH", "setting": "[2]", "result": "7.487 ± 0.039"}, {"measurement": "MAP", "setting": "10 minutes before stroke, group BMX-001 for 28 days (n = 19), mean ± SD", "result": "75 ± 7", "unit": "mmHg"}, {"measurement": "MAP", "setting": "[3]", "result": "69 ± 7", "unit": "mmHg"}, {"measurement": "PCO2", "setting": "[3]", "result": "37 ± 6"}, {"measurement": "PO2", "setting": "[3]", "result": "162 ± 17"}, {"measurement": "pH", "setting": "[3]", "result": "7.462 ± 0.048"}, {"measurement": "MAP", "setting": "[4]", "result": "69 ± 7", "unit": "mmHg"}, {"measurement": "PCO2", "setting": "[4]", "result": "39 ± 6"}, {"measurement": "PO2", "setting": "[4]", "result": "162 ± 17"}, {"measurement": "pH", "setting": "[4]", "result": "7.433 ± 0.049"}]}]}
